As usually defined, the solubility is how much of the substance goes into solution per volume. Read a low solubility as a poorly soluble substance.

Values after ≈ are worked out from the molar mass of the structure shown.

The nature of the data set: Solubility of the compound in PBS buffer after 16 hrs.

In turn, `O=C1CC(=O)N(CCc2cccc(F)c2)C(=O)N1CCc1cccc(F)c1` showed a solubility of 31.3 µM (≈ 11.7 µg/mL).

Source of the values: ChEMBL document CHEMBL1765084, “Pyrimidine-2,4,6-trione derivatives and their inhibition of mutant SOD1-dependent protein aggregation. Toward a treatment for amyotrophic lateral sclerosis” (J Med Chem, 2011).
